Results on 2 substances are retold here after paper PMC8287938, “Identification and structural analysis of the Schizosaccharomyces pombe SMN complex” (Nucleic Acids Research, 2021).

Sequences of proteins named here, by UniProt entry; tags and fusion partners are left off. A change or cut given only in a name is not applied to a line headed by its entry.
UniProt G2TRK8: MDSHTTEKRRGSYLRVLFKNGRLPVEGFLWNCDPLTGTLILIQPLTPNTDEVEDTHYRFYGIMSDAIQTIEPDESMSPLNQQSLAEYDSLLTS
UniProt Q9USY8: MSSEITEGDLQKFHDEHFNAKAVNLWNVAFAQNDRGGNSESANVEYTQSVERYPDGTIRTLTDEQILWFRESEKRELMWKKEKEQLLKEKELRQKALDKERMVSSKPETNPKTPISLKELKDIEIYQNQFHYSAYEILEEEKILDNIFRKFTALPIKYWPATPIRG
UniProt G2TRR1: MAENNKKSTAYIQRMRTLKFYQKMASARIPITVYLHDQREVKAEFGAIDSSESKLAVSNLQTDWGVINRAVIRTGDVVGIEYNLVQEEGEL

Results are given in words; binding and its absence hold for the method and conditions named. In cells and extracts the contact can be indirect. These calls come from enrichment with a bait or labelling near it, and not all partners need be listed.

This experiment addresses GFP-SpG6 (S. pombe) (UniProt G2TRK8). Nature of the experiment: affinity purification with mass spectrometry; GFP-Trap beads, extract of S. pombe cells expressing GFP-SpG6 as sole source of SpG6; 10 mM Tris/Cl pH 7.5, 150 mM NaCl, 0.5 mM EDTA, 4 h at 4°C; SDS-PAGE and mass spectrometry.

For the substance SpG8 (endogenous) (from UniProt Q9USY8), the binding entry is listed as “binds”. Consider SpG7 (endogenous) (from UniProt G2TRR1), for which the binding entry was “binds”.
